According to the supplement of paper PMC10849652:
Some of the results follow.

Sequences of proteins named here, by UniProt entry; tags and fusion partners are left off. A change or cut given only in a name is not applied to a line headed by its entry.
UniProt Q9Y2Z0: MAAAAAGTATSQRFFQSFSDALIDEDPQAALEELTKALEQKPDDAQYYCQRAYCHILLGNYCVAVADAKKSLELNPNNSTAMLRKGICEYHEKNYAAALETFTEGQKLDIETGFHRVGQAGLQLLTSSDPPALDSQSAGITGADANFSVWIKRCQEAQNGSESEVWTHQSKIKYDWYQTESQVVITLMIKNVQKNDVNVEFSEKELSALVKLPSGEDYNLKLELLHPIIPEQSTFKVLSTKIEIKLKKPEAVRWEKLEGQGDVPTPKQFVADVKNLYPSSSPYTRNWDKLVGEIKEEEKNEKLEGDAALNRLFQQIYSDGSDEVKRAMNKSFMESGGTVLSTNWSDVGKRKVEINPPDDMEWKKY
UniProt P50225: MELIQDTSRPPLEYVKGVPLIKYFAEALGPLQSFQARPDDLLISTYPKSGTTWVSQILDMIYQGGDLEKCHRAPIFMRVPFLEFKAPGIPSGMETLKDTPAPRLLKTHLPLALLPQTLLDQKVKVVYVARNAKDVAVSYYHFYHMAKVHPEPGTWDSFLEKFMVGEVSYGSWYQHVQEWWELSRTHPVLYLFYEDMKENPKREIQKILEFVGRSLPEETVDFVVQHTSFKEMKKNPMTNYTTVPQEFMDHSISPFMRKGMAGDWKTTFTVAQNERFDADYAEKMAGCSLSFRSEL
UniProt Q6ZWJ1: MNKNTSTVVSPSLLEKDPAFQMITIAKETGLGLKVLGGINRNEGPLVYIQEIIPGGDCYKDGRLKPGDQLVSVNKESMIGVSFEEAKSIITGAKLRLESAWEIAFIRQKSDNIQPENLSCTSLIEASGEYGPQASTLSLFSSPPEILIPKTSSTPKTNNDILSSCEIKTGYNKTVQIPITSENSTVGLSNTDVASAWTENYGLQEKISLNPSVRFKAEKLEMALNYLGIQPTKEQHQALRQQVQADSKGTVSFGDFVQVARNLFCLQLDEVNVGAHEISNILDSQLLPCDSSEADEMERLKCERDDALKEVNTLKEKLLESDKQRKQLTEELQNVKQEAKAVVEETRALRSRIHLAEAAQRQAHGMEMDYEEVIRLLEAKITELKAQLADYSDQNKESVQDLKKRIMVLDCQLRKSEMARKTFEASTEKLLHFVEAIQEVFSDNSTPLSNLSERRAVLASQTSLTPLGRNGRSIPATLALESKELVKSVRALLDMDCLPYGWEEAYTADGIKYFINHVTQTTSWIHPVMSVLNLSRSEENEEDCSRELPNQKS
UniProt O94864: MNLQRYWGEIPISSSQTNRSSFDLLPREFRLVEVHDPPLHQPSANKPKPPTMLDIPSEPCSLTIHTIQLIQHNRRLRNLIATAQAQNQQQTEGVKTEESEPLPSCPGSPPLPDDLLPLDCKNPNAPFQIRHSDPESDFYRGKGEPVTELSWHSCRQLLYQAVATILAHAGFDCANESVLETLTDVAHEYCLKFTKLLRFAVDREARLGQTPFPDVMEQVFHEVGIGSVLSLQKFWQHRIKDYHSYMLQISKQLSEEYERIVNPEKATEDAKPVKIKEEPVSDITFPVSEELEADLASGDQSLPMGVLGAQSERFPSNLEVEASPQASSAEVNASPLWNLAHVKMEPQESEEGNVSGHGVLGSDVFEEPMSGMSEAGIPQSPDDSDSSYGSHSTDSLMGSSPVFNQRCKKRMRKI
UniProt Q1ZZU3: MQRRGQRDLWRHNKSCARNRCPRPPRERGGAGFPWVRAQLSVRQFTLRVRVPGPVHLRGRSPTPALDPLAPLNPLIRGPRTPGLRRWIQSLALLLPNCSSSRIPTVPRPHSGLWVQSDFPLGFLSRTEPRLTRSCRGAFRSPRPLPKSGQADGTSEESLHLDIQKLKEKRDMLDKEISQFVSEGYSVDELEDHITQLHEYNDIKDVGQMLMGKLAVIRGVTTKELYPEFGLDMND
UniProt Q15572: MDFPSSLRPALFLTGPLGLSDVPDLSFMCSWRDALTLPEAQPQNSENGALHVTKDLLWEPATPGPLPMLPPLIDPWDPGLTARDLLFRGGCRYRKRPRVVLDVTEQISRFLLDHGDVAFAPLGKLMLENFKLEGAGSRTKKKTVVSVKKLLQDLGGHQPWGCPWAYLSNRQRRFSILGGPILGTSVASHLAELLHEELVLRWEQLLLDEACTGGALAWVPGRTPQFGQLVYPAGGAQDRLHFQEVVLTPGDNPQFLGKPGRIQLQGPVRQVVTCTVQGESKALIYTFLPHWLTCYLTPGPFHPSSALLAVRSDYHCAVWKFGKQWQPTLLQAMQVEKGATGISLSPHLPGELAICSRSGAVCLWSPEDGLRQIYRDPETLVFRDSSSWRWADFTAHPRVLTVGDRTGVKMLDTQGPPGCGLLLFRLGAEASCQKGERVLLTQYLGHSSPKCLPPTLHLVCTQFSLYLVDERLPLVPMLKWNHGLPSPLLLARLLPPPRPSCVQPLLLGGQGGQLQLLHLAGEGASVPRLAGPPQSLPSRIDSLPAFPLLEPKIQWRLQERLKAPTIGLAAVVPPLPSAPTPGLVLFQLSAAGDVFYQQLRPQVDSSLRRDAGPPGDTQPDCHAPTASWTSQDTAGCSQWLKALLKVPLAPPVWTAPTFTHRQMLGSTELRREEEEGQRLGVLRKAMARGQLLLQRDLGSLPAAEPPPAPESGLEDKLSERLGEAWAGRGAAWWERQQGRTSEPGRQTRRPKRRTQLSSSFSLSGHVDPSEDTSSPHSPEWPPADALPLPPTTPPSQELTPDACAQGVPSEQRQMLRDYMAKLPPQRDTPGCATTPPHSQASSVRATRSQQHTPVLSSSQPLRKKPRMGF
UniProt Q9UJZ1: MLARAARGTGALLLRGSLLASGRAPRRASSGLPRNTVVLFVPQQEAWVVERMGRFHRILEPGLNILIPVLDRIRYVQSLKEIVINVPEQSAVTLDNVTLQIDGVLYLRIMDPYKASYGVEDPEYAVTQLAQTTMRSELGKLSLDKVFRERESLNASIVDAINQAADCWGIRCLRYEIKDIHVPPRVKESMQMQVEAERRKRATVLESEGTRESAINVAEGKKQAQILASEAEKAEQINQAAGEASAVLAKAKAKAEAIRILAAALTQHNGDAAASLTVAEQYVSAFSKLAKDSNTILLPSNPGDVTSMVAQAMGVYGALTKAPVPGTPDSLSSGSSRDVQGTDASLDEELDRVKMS
UniProt O00268, whole entry, looked up: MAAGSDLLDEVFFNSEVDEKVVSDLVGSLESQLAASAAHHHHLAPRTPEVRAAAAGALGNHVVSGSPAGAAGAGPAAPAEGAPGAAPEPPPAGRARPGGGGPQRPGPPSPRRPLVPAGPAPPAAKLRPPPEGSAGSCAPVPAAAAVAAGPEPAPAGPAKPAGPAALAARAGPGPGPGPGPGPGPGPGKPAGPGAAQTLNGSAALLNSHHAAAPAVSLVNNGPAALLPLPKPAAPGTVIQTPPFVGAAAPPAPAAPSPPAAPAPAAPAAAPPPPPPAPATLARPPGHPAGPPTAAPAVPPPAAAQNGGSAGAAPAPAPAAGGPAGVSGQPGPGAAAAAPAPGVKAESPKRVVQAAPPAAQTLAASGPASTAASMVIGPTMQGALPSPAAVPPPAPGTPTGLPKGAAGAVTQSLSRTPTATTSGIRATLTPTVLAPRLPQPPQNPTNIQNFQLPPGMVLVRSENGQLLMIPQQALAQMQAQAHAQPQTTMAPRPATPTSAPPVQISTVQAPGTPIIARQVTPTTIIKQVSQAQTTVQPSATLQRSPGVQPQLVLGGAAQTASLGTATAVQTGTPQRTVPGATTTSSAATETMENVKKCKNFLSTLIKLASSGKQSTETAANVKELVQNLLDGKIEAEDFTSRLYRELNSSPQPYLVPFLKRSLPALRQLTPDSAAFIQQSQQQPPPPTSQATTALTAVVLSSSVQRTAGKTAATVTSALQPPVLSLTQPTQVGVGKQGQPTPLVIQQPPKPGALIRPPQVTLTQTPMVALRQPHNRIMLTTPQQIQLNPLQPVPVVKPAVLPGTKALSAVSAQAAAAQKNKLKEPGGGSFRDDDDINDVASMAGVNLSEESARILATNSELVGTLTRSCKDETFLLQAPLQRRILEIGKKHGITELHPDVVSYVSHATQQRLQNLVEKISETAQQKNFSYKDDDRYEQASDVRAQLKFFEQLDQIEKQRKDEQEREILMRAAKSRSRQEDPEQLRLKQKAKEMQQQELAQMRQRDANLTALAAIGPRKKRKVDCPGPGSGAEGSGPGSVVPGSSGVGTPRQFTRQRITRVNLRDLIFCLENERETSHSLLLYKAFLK
UniProt Q13043: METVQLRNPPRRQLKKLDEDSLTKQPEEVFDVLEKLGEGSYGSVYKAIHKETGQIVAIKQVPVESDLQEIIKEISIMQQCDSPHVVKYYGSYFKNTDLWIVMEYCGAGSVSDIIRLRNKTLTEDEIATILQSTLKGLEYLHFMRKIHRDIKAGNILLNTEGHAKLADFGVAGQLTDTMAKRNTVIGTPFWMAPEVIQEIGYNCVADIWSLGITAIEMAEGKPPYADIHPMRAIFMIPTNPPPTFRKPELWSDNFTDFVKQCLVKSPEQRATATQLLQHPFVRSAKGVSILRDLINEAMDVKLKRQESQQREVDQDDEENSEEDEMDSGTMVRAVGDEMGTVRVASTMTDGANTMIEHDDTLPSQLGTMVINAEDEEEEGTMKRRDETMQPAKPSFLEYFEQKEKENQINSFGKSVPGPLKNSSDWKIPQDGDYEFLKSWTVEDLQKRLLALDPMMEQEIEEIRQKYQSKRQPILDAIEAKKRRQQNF
UniProt Q16514: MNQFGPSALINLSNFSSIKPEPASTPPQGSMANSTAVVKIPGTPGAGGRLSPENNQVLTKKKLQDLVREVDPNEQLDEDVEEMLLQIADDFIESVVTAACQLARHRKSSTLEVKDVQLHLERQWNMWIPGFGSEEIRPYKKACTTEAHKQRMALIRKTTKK
UniProt B4DR80: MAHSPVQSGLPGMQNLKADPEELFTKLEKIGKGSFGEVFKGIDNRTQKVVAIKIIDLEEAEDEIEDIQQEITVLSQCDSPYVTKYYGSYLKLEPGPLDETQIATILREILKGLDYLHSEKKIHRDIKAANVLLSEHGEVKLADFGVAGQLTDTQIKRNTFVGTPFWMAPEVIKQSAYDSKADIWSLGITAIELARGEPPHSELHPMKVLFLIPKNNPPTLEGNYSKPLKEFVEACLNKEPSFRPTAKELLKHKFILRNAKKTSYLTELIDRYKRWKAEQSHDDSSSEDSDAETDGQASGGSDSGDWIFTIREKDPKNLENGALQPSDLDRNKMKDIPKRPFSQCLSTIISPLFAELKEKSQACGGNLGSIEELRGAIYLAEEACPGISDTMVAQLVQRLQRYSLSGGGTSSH
UniProt P61764, whole entry, looked up: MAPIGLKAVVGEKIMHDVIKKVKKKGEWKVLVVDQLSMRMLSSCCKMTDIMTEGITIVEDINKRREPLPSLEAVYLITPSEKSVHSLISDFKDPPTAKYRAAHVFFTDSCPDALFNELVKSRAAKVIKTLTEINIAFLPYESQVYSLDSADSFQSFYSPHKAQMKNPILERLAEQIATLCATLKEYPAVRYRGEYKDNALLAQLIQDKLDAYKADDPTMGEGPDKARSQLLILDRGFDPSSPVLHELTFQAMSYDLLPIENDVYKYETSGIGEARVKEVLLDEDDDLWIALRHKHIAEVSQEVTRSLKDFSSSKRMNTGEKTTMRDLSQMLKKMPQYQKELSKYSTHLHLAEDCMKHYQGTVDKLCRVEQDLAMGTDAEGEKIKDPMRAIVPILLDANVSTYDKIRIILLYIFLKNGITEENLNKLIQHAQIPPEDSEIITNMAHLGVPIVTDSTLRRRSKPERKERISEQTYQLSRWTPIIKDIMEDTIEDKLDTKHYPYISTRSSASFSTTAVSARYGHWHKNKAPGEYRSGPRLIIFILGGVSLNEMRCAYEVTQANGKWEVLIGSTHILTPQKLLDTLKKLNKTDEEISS
UniProt O75683: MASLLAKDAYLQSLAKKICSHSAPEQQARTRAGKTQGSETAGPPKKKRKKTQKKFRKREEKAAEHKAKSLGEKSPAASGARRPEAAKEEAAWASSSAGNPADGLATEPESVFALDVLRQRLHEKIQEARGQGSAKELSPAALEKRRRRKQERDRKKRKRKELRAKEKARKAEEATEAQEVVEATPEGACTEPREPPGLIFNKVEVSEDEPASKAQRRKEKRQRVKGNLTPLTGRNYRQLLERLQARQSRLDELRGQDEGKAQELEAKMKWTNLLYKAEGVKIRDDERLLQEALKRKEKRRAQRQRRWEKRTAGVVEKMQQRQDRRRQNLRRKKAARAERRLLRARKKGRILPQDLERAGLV
UniProt Q96A49: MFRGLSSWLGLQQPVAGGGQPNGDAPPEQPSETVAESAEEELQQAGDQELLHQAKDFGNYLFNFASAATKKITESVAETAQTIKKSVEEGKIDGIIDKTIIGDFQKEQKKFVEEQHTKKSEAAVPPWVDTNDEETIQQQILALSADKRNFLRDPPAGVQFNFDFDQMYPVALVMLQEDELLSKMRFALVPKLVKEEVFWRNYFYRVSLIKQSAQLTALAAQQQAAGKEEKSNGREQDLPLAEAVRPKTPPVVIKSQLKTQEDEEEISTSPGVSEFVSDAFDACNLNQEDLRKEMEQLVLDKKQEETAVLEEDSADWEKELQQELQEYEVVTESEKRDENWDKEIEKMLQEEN

Assays:
Assay in all cases: log2 fold change, soluble protein after heating vs DMSO (PISA); higher = thermal stabilisation; K562 lysate, 10 uM; active = over 0.2 and 3.5 SD of the protein, either way, in both replicates (recomputed)
[1] = compound: C1=CC=C(C=C1)[C@H](COC2=CC3=C(C=C2)NC(=O)N3)NC(=O)C4=CC=CN(C4=O)CC5=CC(=C(C=C5)F)F
Outline: (§1)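 To prepare the extract, K562 pellets were dounce-homogenised in PBS pH 7.4 with 1 mM MgCl2, giving crude material at 1 mg/mL protein. This was treated with 10 μM compound for 30 min, then heated in aliquots for 3 min over 48°C-58°C before pooling and addition of NP-40 to 0.5% at 4°C. Centrifugation at 21,000xg for 90 min left soluble protein in the supernatant, which TMTpro 16plex LC-MS/MS quantified with equalised channel sums. Results are log-two fold changes in thermal stability compared with solvent controls, from duplicates.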

[2] = compound: CC1=C(SC2=C1C(=N[C@H](C3=NN=C(N32)C)CC(=O)N)C4=CC=C(C=C4)Cl)C
Outline: as §1

[3] = compound: CC1=C2C(=CC=C1)N=C(N(C2=O)C3=CC=CC=C3C)CN4C=NC5=C(N=CN=C54)N
Outline: as §1

[4] = compound: Cc1sc2c(c1C)C(c1ccc(Cl)cc1)=N[C@@H](CC(=O)OC(C)(C)C)c1nnc(C)n1-2
Outline: as §1

[5] = compound: c1ccc([C@@H]2C[C@H]2NC2CCNCC2)cc1
Outline: as §1

Measured: log2 fold change

SUGT1 isoform 2 (UniProt Q9Y2Z0)
inactive: [1] 0.202 | [2] -0.068 | [3] 0.042 | [4] -0.034

SULT1A1 (UniProt P50225)
inactive: [1] -0.022 | [2] -0.02 | [3] 0 | [4] 0.051 | [5] 0.088

STXBP4 (UniProt Q6ZWJ1)
inactive: [1] -0.036 | [2] 0.013 | [3] 0.04 | [4] 0.06 | [5] 0.047

SUPT7L (UniProt O94864)
inactive: [1] 0.047 | [2] 0.028 | [3] -0.013 | [4] -0.125 | [5] 0

STUB1 (UniProt Q9UNE7)
inactive: [1] -0.04 | [2] 0.036 | [3] -0.006 | [4] 0.035 | [5] 0.02

SWI5 (UniProt Q1ZZU3)
inactive: [1] 0.078 | [2] 0.016 | [3] 0.064 | [4] 0.072 | [5] -0.024

TAF1C (UniProt Q15572)
inactive: [1] -0.076 | [2] 0.072 | [3] -0.032 | [4] -0.044 | [5] 0.032

STOML2 (UniProt Q9UJZ1)
inactive: [1] -0.008 | [2] 0.004 | [3] -0.027 | [4] -0.025 | [5] -0.008

SUPT6H (UniProt Q7KZ85)
inactive: [1] 0.03 | [2] 0.009 | [3] 0.011 | [4] 0.01 | [5] -0.012

TAF4 (UniProt O00268)
inactive: [1] -0.052 | [2] 0.028 | [3] 0.003 | [4] -0.024

SUPV3L1 (UniProt Q8IYB8)
inactive: [1] -0.025 | [2] 0.017 | [3] 0.028 | [4] 0.03 | [5] 0.011

STRADA (UniProt Q7RTN6)
inactive: [1] 0.049 | [2] -0.014 | [3] 0.019 | [4] -0.062 | [5] 0.006

SYF2 (UniProt O95926)
inactive: [1] 0.021 | [2] -0.102 | [3] 0.001 | [4] 0.015 | [5] -0.024

STK4 (UniProt Q13043)
inactive: [1] -0.031 | [2] -0.098 | [3] -0.05 | [4] -0.029 | [5] -0.124

STRIP2 (UniProt Q9ULQ0)
inactive: [1] -0.009 | [2] 0.013 | [3] 0.027 | [4] -0.006 | [5] 0

TAF12 (UniProt Q16514)
inactive: [1] 0 | [2] -0.017 | [3] -0.023 | [4] -0.041 | [5] -0.043

SZRD1 (UniProt Q7Z422)
inactive: [1] -0.003 | [2] 0.018 | [3] -0.008 | [4] -0.02 | [5] -0.039

STK24 (UniProt B4DR80)
inactive: [1] -0.025 | [2] 0.003 | [3] -0.041 | [4] -0.019 | [5] -0.055

STXBP1 (UniProt P61764)
inactive: [1] 0.007 | [2] 0.016 | [3] -0.02 | [4] -0.011 | [5] 0.017

SYNGR2 (UniProt O43760)
inactive: [1] -0.075 | [2] -0.057 | [3] 0.06 | [4] -0.168 | [5] -0.063

Taken from the results shown (two entries):
STK24 (UniProt B4DR80)
inactive: [1] -0.025 | [2] 0.003 | [3] -0.041 | [4] -0.019 | [5] -0.055

STXBP1 (UniProt P61764)
inactive: [1] 0.007 | [2] 0.016 | [3] -0.02 | [4] -0.011 | [5] 0.017

Continued.

SURF6 (UniProt O75683)
inactive: [1] -0.002 | [2] 0.024 | [3] -0.003 | [4] 0.007 | [5] -0.004

STK11IP (UniProt Q8N1F8)
inactive: [1] 0.002 | [2] 0.072 | [3] 0.019 | [4] 0.019 | [5] 0.015

SYAP1 (UniProt Q96A49)
inactive: [1] 0.154 | [2] -0.058 | [3] -0.015 | [4] 0.019 | [5] 0.026

STX16 isoform 2 (UniProt O14662)
inactive: [1] -0.007 | [2] 0.029 | [3] -0.006 | [4] -0.021 | [5] 0.027
